Measured values taken from PMC10097714.

Key:
TDP-43 G287S (human) = TDP-43 G287S (human) (UniProt Q13148); assay: EMSA (agarose); conditions: EMSA: 20 mM PIPES-NaOH pH 6.8, 150 mM NaCl, 0.8 mM MgCl2, 10% glycerol, 0.1 mg/ml BSA, 0.1 mg/ml poly-dI-dC, 25 C, gel 0.5x TBE pH 6.8; recombinant protein; residues 1-414; protein details: untagged; label: 5' Cy3, 3' Alexa Fluor 647
TDP-43 M337V (human) = TDP-43 M337V (human) (UniProt Q13148); assay: EMSA (agarose); conditions: EMSA: 20 mM PIPES-NaOH pH 6.8, 150 mM NaCl, 0.8 mM MgCl2, 10% glycerol, 0.1 mg/ml BSA, 0.1 mg/ml poly-dI-dC, 25 C, gel 0.5x TBE pH 6.8; recombinant protein; residues 1-414; protein details: untagged; label: 5' Cy3, 3' Alexa Fluor 647
GST-GR G287S (human) [1] = biological target: GST-GR G287S (human) (UniProt Q13148); assay: UV cross-linking, SDS-PAGE; conditions: n.s. vs WT; UV cross-linking: EMSA buffer without poly-dI-dC; recombinant protein; protein details: GST; label: 5' Cy3, 3' Alexa Fluor 647
GST-GR M337V (human) [2] = biological target: GST-GR M337V (human) (UniProt Q13148); assay: UV cross-linking, SDS-PAGE; conditions: n.s. vs WT; UV cross-linking: EMSA buffer without poly-dI-dC; recombinant protein; protein details: GST; label: 5' Cy3, 3' Alexa Fluor 647
GST-GR G287S (human) [3] = biological target: GST-GR G287S (human) (UniProt Q13148); assay: CD; conditions: 1 uM each, positive peak increased; recombinant protein; protein details: GST
GST-GR M337V (human) [4] = biological target: GST-GR M337V (human) (UniProt Q13148); assay: CD; conditions: 1 uM each, positive peak increased; recombinant protein; protein details: GST
GST-GR G287S + His-RRM = assay: GST pull-down, western blot; conditions: reduced His-RRM recruitment; pull-down: PIPES pH 6.8, 145 mM NaCl, 5.4 mM KCl, 0.8 mM MgCl2, 1.8 mM CaCl2, 0.05% Tween-20, 10% glycerol, 4 C; recombinant protein; protein details: GST,His
GST-GR M337V + His-RRM = assay: GST pull-down, western blot; conditions: reduced His-RRM recruitment; pull-down: PIPES pH 6.8, 145 mM NaCl, 5.4 mM KCl, 0.8 mM MgCl2, 1.8 mM CaCl2, 0.05% Tween-20, 10% glycerol, 4 C; recombinant protein; protein details: GST,His
GST-GR WT + His-RRM = assay: GST pull-down, western blot; conditions: ternary complex, no RRM-GR interaction without RNA; pull-down: PIPES pH 6.8, 145 mM NaCl, 5.4 mM KCl, 0.8 mM MgCl2, 1.8 mM CaCl2, 0.05% Tween-20, 10% glycerol, 4 C; recombinant protein; protein details: GST,His
GST-GR G287S (human) [5] = biological target: GST-GR G287S (human) (UniProt Q13148); assay: SPR; conditions: 50 nM protein, no significant difference from WT; 3' DNA dA16 tail on RNA; SPR: 20 mM PIPES pH 6.8, 12 mM KCl, 0.8 mM MgCl2, 150 mM NaCl, 0.05% Tween-20, 25 C; recombinant protein; protein details: GST
GST-GR M337V (human) [6] = biological target: GST-GR M337V (human) (UniProt Q13148); assay: SPR; conditions: 50 nM protein, no significant difference from WT; 3' DNA dA16 tail on RNA; SPR: 20 mM PIPES pH 6.8, 12 mM KCl, 0.8 mM MgCl2, 150 mM NaCl, 0.05% Tween-20, 25 C; recombinant protein; protein details: GST
[7] = biological target: GST-RRMwm R151A,D247A (human) (UniProt Q13148); assay: EMSA (agarose); conditions: reduced at low concentration, near WT at 10x; EMSA: 20 mM PIPES-NaOH pH 6.8, 150 mM NaCl, 0.8 mM MgCl2, 10% glycerol, 0.1 mg/ml BSA, 0.1 mg/ml poly-dI-dC, 25 C, gel 0.5x TBE pH 6.8; recombinant protein; residues 101-261; protein details: GST; label: 3' Alexa Fluor 647

Sequence	binding result (TDP-43 G287S (human))	binding result (TDP-43 M337V (human))	binding result (GST-GR G287S (human) [1])	binding result (GST-GR M337V (human) [2])	binding result (GST-GR G287S (human) [5])	binding result (GST-GR M337V (human) [6])	further results
GGGGAAAAGGGAGGGAUGGG [Cy3-PSD-Ax647]	binds more weakly	binds more weakly	binds	binds			
UGGGGGGGGCGGGUGGGAUGGGA [CaMKIIa G4]							binding result (GST-GR G287S (human) [3]): binds; binding result (GST-GR M337V (human) [4]): binds; binding result (GST-GR G287S + His-RRM): binds more weakly; binding result (GST-GR M337V + His-RRM): binds more weakly; binding result (GST-GR WT + His-RRM): binds
GGGGAAAAGGGAGGGAUGGGAAAAAAAAAAAAAAAA [PSD-95 G4 dA16]					binds	binds	
UGUGUGUGUGUGUGUGUGUG [UG10-Ax647]							binding result [7]: binds more weakly
UGGGGGGGGCGGGUGGGAUGGGAAAAAAAAAAAAAAAAA [CaMKIIa G4 dA16]					binds	binds	
UGGGGGGGGCGGGUGGGA [Cy3-CaMKII-Ax647]	binds more weakly	binds more weakly	binds	binds			

For part of these data: A weaker result is weaker than the reference pair of the same experiment. For part of these data: For at least one entry, the source does not settle the construct or the ends of the probe.
